Where two headings read alike, the source gives them in different places. Results are given in words; binding and its absence hold for the method and conditions named. Binding seen in cells or lysates may run through a third protein. Binding calls can cover weak binding; strength is not graded here.
How the values were obtained:
[1] = target: Phloem Protein 2 (CsPP2), endogenous in cucumber (Cucumis sativus (endogenous in cucumber leaves)) (UniProt Q8LK13); experiment: co-IP
[2] = target: Phloem Protein 2 (CsPP2), endogenous in cucumber (Cucumis sativus (endogenous in cucumber leaves)) (UniProt Q8LK13); experiment: co-IP; remark: listed apart in the source

**Q.** “Tetraspanin 8 (CsTET8), endogenous in cucumber (from UniProt A0A0A0LTZ1)” was tested. Which binding [1] did it give?
**A.** binds

**Q.** And the binding [2]?
**A.** binds
